Not every detail of the peptide structures is certain; ends, links or a residue may be inferred. Where a SMILES comes first, the peptide text is derived from it.
How the values were obtained:
[1] = system: cMyBP-c 40 kDa transgenic mice; test: cMyBP-c 40 kDa transgenic mouse (hypertrophic cardiomyopathy); assay type: in vivo; settings: 50 micrograms/kg/day i.p.
[2] = system: induced sputum inflammatory biomarkers IL-6, IL-1β, IL-8, TNFα; test: LPS challenge study: induced sputum cytokines IL-1β, IL-8, TNFα, IL-6 post-LPS; assay type: in vivo, human
MK2 = test: LPS challenge study: phosphorylation of MK2 protein (STAT1 surrogate) in induced sputum leukocytes, Day 3; assay type: in vivo, human
Mouse model-induced MI = settings: cited from earlier work
pHSP27 = test: LPS challenge study: buffy coat pHSP27; assay type: in vivo, human; settings: after 5 days dosing, prior to LPS challenge; not statistically significant (p=0.153)
CryAB R120G Tg mouse = test: CryAB R120G Tg mouse, hereditary cardiomyopathy; settings: in vivo
[3] = system: Transgenic murine cardiac fibrosis; test: Transgenic murine cardiac fibrosis, familial cardiac hypertrophy; assay type: in vivo; settings: long-term (6 mos) model, vs placebo
Porcine angioplasty = test: Porcine angioplasty, intimal hyperplasia; assay type: in vivo; settings: vs placebo
Mouse LPS challenge (WT) = test: Mouse LPS challenge (WT); assay type: in vivo; settings: vs placebo
[4] = system: normal primary human fetal lung fibroblasts; settings: following TGFβ activation; cited from earlier work
Mouse skin distraction = test: Mouse skin distraction, cutaneous scarring; assay type: in vivo; settings: vs placebo
blood biomarkers = test: LPS challenge study: blood biomarkers day 5 post-LPS; assay type: in vivo, human; settings: locally administered
Murine dust mite = test: Murine dust mite, allergic asthma; assay type: in vivo; settings: vs placebo
[5] = system: Mouse aortic bypass graft; settings: vs placebo; cited from earlier work
[6] = system: Rabbit jugular vein bypass graft; settings: vs placebo; cited from earlier work
IL-6 = test: LPS challenge study: blood (serum) IL-6; assay type: in vivo, human
Mouse bleomycin model = settings: cited from earlier work
[7] = ANOVA linear mixed effects model, evaluable population N = 20, MMI vs PBO

CC(C)C[C@H](NC(=O)[C@H](C)NC(=O)[C@H](CCCCN)NC(=O)[C@H](C)NC(=O)[C@H](CCCNC(=N)N)NC(=O)[C@H](C)NC(=O)[C@H](CCC(N)=O)NC(=O)[C@H](CCCNC(=N)N)NC(=O)[C@H](C)NC(=O)[C@H](C)NC(=O)[C@H](C)NC(=O)[C@H](CCCNC(=N)N)NC(=O)[C@H](C)NC(=O)[C@@H](N)Cc1ccc(O)cc1)C(=O)N[C@@H](C)C(=O)N[C@@H](CCCNC(=N)N)C(=O)N[C@@H](CCC(N)=O)C(=O)N[C@@H](CC(C)C)C(=O)NCC(=O)N[C@H](C(=O)N[C@@H](C)C(=O)N[C@@H](C)C(=O)O)C(C)C [MMI-0100] (H-YARAAARQARAKALARQLGVAA-OH)
cardiac hypertrophy (heart weight/body weight) [1]: attenuated the development of cardiac hypertrophy
fibrosis induced by the cMyBP-c 40 kDa fragment [1]: alleviated the interstitial but not perivascular fibrosis
survival at 10 weeks ([1]; female and male mice): improved survival
subjects identified as responders (reduction in sputum IL-1β >25% vs placebo) ([2]; Day 5 post-LPS): 10/16
responsivity of smokers to LPS challenge in the lung compartment (sputum cytokines) ([2]; by treatment period, N=8/group, 5 days pre-treatment): appeared to enhance responsivity
sputum biomarkers or cell counts, MMI-0100 vs placebo groups ([2]; post LPS challenge after 5 days of dosing, group level): no statistically significant differences
subjects with a reduction in MK2 phosphorylation compared with placebo (MK2; induced sputum macrophages, Day 3): 6/8
subjects with a reduction in MK2 phosphorylation compared with placebo (MK2; subjects who produced a sputum sample on Day 3 during both treatment periods): 4/4
cardiac function (Mouse model-induced MI; IP and IH, vs placebo): Improved cardiac function
decreased incidence of fibrosis (Mouse model-induced MI; IP and IH, vs placebo): 50%
development of cardiac fibrosis (Mouse model-induced MI; daily treatment after permanent left anterior descending coronary artery ligation): significantly inhibited development of cardiac fibrosis
pHSP27 in blood buffy coat (pHSP27): decreased
CryAB R120G-mediated disease (CryAB R120G Tg mouse): attenuates CryAB R120G-mediated disease
cardiac fibrosis [3]: Decreased cardiac fibrosis
survival [3]: trend towards improved
rates of intimal hyperplasia post angioplasty (Porcine angioplasty): Lower rates of intimal hyperplasia post angioplasty
BAL macrophage concentrations (Mouse LPS challenge (WT)): Significantly decreased BAL macrophage
key MK2 substrate phosphorylation [4]: blocks
scarring and inflammation macroscopically and by histology (Mouse skin distraction): Lower rates of scarring and inflammation
blood biomarkers (blood biomarkers): Modulation of blood biomarkers was observed
BAL eosinophil concentrations (Murine dust mite): Significantly decreased BAL eosinophil
infiltrating macrophages in graft tissues [5]: fewer infiltrating
intimal thickness [5]: Reduced intimal thickness
infiltrating macrophages in graft tissues [6]: fewer infiltrating
intimal thickness [6]: Reduced intimal thickness
Blood IL-6 Treatment Difference (SE), Change from Day 3 (Post-dose) at Day 5 (Post LPS Challenge) (IL-6; [7]): −2.793
Blood IL-6 Treatment Difference (SE), Change from baseline at Day 3 (Post-dose) (IL-6; [7]): 0.153
Blood IL-6 Treatment Difference (SE), Change from baseline at Day 3 (pre-dose) (IL-6; [7]): 0.229
Blood IL-6 Treatment Difference (SE), Change from baseline at Day 5 (Post-LPS Challenge) (IL-6; [7]): −2.640
Blood IL-6 Treatment Difference (SE), Change from baseline at Day 5 (Pre-dose) (IL-6; [7]): 0.499
Blood IL-6 Treatment Difference (SE), Change on Day 5 (Post-dose minus Pre-dose) (IL-6; [7]): −3.138
serum IL-6 response to LPS challenge (IL-6; Period 1, N=10/group, vs placebo): significantly (p=0.006) decreased
survival (Mouse bleomycin model; WT and mHAS2tg models, vs placebo): present. Improved survival in both WT and mHAS2tg
plasma IL-6 and TNFα (Mouse bleomycin model; murine bleomycin treatment model): decreases
fibrosis formation (Mouse bleomycin model; vs placebo): Prevented fibrosis formation
progression of fibrosis after significant fibrosis present (Mouse bleomycin model; vs placebo): abrogated

Reference: patent publication US20190134153A1, “IMMUNOMODULATORY EFFECT OF INHALED KINASE INHIBITOR PEPTIDES IN LUNG” (MOERAE MATRIX, INC., priority 2017, published 2019)
